This passage reports binding result and Kd results from article doi:10.1101/201277 (bioRxiv, 2017).

For some assays here: Protein sequences can lack the tags named with them. For some assays here: For at least one entry, the source does not settle the construct or the ends of the probe. For some assays here: The comparison behind a weaker result is the experiment's own reference, which may not be listed here. For some assays here: At least one verdict was read from the data and is not stated in words by the source.

In data set [1] the target is T1, Cra (FruR) (Escherichia coli strain 3.300 (Hfr(PO1), lacI22)) (UniProt P0ACP1).
T1 sequence (looked up): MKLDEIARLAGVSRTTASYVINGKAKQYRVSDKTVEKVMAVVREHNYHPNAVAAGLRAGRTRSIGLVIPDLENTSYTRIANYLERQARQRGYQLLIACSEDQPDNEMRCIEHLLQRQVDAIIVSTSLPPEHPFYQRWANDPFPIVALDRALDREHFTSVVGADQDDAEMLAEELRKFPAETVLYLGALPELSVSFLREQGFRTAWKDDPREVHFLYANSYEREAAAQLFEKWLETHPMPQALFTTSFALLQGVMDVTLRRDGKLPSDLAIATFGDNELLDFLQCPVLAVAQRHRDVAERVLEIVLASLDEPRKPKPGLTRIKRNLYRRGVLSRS
In words: BLI. The settings on record: residues 1-334.

Data set [2] concerns Cra (FruR) + FruK (fructose-1-kinase, 1-phosphofructokinase). In words: BLI. (In BLI a coated tip is dipped into the sample, and binding shifts an interference pattern.)
In data set [3] the target is T1, Cra (FruR) (Escherichia coli strain 3.300 (Hfr(PO1), lacI22)). In words: filter binding. The settings on record: 1 mM fructose-1-phosphate; residues 1-334.

As to “ATGCATGTTGTGTGGCCTGAATCAATTCAGCTCACACAGGTGTCC (double strand) [pfkA operator (BLI)]”, the binding result in data set [1] (1 mM F-1-P) was “binds more weakly”; in data set [1] (10 mM F-1,6-BP), “binds more weakly”; in data set [2] (1 mM F-1-P) it was “binds more weakly”; in data set [2] (10 mM F-1,6-BP, signal increased) it was “binds”.
Regarding “ATGCATGTTGTGTGGGCTGAATCGCTTAACGTCACACAGGTGTCC (double strand) [aceB operator (BLI)]”, the binding result in data set [1] (1 mM F-1-P), in data set [1] (10 mM F-1,6-BP) and in data set [2] (1 mM F-1-P) was “binds more weakly” in each case.
In the case of “ATGCATGTTGTGTGGTTCTTGAAACGTTTCAGCTCACACAGGTCC (double strand) [fruB proximal operator (BLI)]”, the binding result in data set [1] (1 mM F-1-P), in data set [1] (10 mM F-1,6-BP) and in data set [2] (1 mM F-1-P) was “binds more weakly” each time.
As to “TGTTGTGTGGGCTGAATCGCTTAACGTCACACAGG (double strand) [aceB operator (filter binding)]”, in data set [3], the Kd is over 100 nM.

The Kd is the concentration at which binding is half-saturated.
